Experimental data taken from PubChem BioAssay AID493014 (National Center for Advancing Translational Sciences (NCATS), 2011).
The whole screen tested about 340,000 compounds, of which about 170 (0.05%) were called active. The inconclusive results got no clear call from the source; some entries with a clear call stand among them for comparison. Calls follow the shape of the dose curve; as a rule, active = well fitted inhibition curve with a large enough effect in the signal ratio, with a control signal flat (not every such curve was filed as active); inconclusive = small, poorly fitted or top-dose-only effect, or effect the other way, or a change in a side signal; inactive = flat fitted curve, though single readings scatter; the % refers to the signal ratio. Potencies of inconclusive entries are doubtful fits and often do not repeat.

assay: qHTS Assay to Find Inhibitors of Chronic Active B-Cell Receptor Signaling; conditions: ABC-DLBCL IkBa-CBG/CBR reporter, luminescence ratio (green luciferase fused to IkBa over red control in TMD8 lymphoma cells), 4 h; activity change, negative = inhibition: at 46.1 µM (top of the series);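 as to activity change, negative = inhibition: plate controls were basal doxycycline-induced cells for no effect and cells given 10 µM MG132 for full effect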
How it was run: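 TMD8 ABC-DLBCL cells carrying doxycycline-inducible green luciferase fused to IkappaBalpha plus unfused red luciferase were exposed to compounds (up to 46 uM) for 4 hrs at 37C. Activity came from the overlap-corrected green/red luminescence ratio.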
Potency is read from the fitted curve at half-maximal effect.

SMILES	activity change, negative = inhibition	Potency
CC(C)c1ccc(NC(=O)N2C[C@H]3C[C@@H](C2)c2cccc(=O)n2C3)cc1	inactive	–
COC(=O)C1=C(c2ccccc2OCc2ccccc2)C[C@@H]2CC[C@H]1N2C(=O)NCc1ccc(F)cc1	inconclusive: -1.6%	–
CN1C(=O)CN=C(c2ccc(Cl)cc2)c2cc(Cl)ccc21	–	inconclusive: 3.16 µM [cytotoxic, full curve]
COC(=O)C1=C(c2ccccc2OCc2ccccc2)C[C@@H]2CC[C@H]1N2C(=O)NCc1cccc(F)c1	inconclusive: -9.47%	–
CCC(=O)Nc1ccccc1	inconclusive: 21.8%	–
OC(COCc1ccc(Cl)cc1)CN1CC=C(c2ccccc2)CC1 (configuration not stated)	inconclusive: -14.6%	–
CCOc1ccc(-n2c(/C=C/c3ccccc3)nc3ccccc3c2=O)cc1	inconclusive: -8.35%	–
CC1(C)CC2(CC(c3ccc(F)cc3)c3ccc(O)cc3O2)NC(=S)N1 (configuration not stated)	inconclusive: -7.83%	–
Cc1nc2ccccc2c(=O)n1-c1cc([N+](=O)[O-])cc([N+](=O)[O-])c1	inconclusive: 1.4%	–
Cc1ccc(-n2c(O)c(C=Nc3ccc(S(N)(=O)=O)cc3)c(=O)[nH]c2=O)cc1	inconclusive: -16.1%	–
CN(C)CC1CSCCC1(O)c1ccc(C(F)(F)F)cc1 (configuration not stated)	inconclusive: -2.24%	–
COc1ccc(NC(=O)c2cn(CCC#N)nc2-c2ccc(OC)c(OC)c2)cc1	inconclusive: -2.16%	–
CCCCCSc1cc(O)c(C(CNC)C(C)C)cc1OC (configuration not stated)	inconclusive: -13.2%	–
Cc1cc(C=C2C(=O)NC(=S)NC2=O)c(C)n1C1CCCC1	inactive	–
Cc1ccc(-c2nc3ccccc3c(=O)n2-c2cc(C)ccn2)cc1	inconclusive: 10.7%	–
CSc1ccc(C(c2c(O)c3ccccc3oc2=O)c2c(C)n(C)n(-c3ccccc3)c2=O)cc1 (configuration not stated)	–	inconclusive: 11.2 µM [falling, partial curve]
COc1cc(/C=N/n2cnnc2)ccc1OC(=O)N(C)C	inconclusive: 9.73%	–
O=P(Nc1ccccc1)(Nc1ccccc1)Oc1ccccc1	inconclusive: 0.147%	–
Cc1cccc(-c2nc3ccccc3c(=O)n2-n2cccc2)c1	inconclusive: 0.697%	–
C[C@]12CCC3C(CC[C@H]4C[C@@H](O)CC[C@]34C)C1[C@H]1CN=N[C@H]1[C@@H]2O (some centres not stated)	inconclusive: 4.61%	–
CC(=O)OC1(c2ccccc2)CCN(C2CCCCC2)CC1C (configuration not stated)	inactive	–

SMILES	activity change, negative = inhibition	Potency
CC(Cc1ccccc1)NC(=O)Cc1ccc(N(C)C)cc1 (configuration not stated)	inconclusive: 6.06%	–
Cc1cccc(-c2noc(-c3c(C)noc3C)n2)c1	inconclusive: 3.09%	–
CC(=O)NCC(=O)Nc1ccc(Br)cc1C(=O)c1ccccc1	inconclusive: -8.31%	–
Cn1cccc1/C=C1\C(=O)NC(=O)N(Cc2ccco2)C1=O	inconclusive: 6.87%	–
O=S(=O)(c1ccc(F)cc1)N1CN2CCN(C2)C1	inactive	–
CC(C)(O)[C@H]1O[C@H]2CC[C@@]3(C)[C@@](O)(CC[C@H]4Cc5c([nH]c6ccccc56)[C@@]43C)C2=CC1=O	inconclusive: 2.56%	–
C=C[C@@H]1C2=CCOC(=O)C2=CO[C@H]1O[C@@H]1O[C@H](CO)[C@@H](O)[C@H](O)[C@H]1O	inactive	–
Cc1c(-c2cccc(Cl)c2)nc2ccccc2c1C(=O)N1CCC2(CC1)OCCO2	inconclusive: -1.22%	–
CC(=O)N1N=C(c2cccnc2)CC1c1ccccc1O (configuration not stated)	inconclusive: 11.8%	–
COc1ccc(-c2nn(CCC#N)cc2C(=O)NCc2ccccc2)cc1	inconclusive: -3.56%	–
Cn1c(O)c(C(=Nc2ccccc2)SCc2ccccc2Cl)c(=O)n(C)c1=O	inconclusive: -4.89%	–
O=C1NC(=S)NC(=O)C1C/C=C/c1ccccc1	inconclusive: -14.7%	–
COc1ccc(OCCOc2cccc(C=C3C(=O)NC(=O)NC3=O)c2)cc1	–	inconclusive: 31.6 µM [falling, partial curve]
COc1ccccc1N=Nc1c(O)[nH]c(=S)[nH]c1=O	–	inconclusive: 35.5 µM [rising, single point]
CN(C)C(=O)Oc1ccc(-c2cn3cc(C(F)(F)F)ccc3n2)cc1	inconclusive: 7.17%	–
O=C(c1ccccc1)C1NC1c1ccccc1 (configuration not stated)	–	inconclusive: 31.6 µM [falling, partial curve, poor fit]
Cc1ccc(N(C)C(=O)Oc2cccc3cccnc23)cc1	inconclusive: 8.94%	–
N#C/C(=N\Nc1ccc(S(=O)(=O)N2CCc3ccccc32)cc1)C(N)=S	inconclusive: 9.46%	–
C=CCN1C(=O)C2(C(C(=O)OCC)=C(N)Oc3c2c(=O)oc2ccccc32)c2ccccc21 (configuration not stated)	–	inconclusive: 4.61 µM [falling, single point]
CCCNc1oc(-c2cccc3ccccc23)nc1C#N	inconclusive: 16.3%	–
CC(C)(C)c1cc(NCCCn2ccnc2)n2ncc(-c3ccc(Cl)cc3)c2n1	inconclusive: -2.32%	–

SMILES	activity change, negative = inhibition	Potency
CCCCCCn1c(O)c(C=NC2CCCCC2N)c(=O)[nH]c1=O (configuration not stated)	inactive	–
OC1/C(=C/c2ccc(C(F)(F)F)cc2)N2CCC1CC2 (configuration not stated)	inconclusive: 2.74%	–
O=C(c1ccccc1)C1CCCN(Cc2nc(-c3cnccn3)no2)C1 (configuration not stated)	inconclusive: -20%	–
CCOC(=O)CSc1ccc(C(=O)N2CCC3(CC2)OCCO3)cc1[N+](=O)[O-]	inactive	–
COc1c(C)cc(C(=O)C2CCCN(C3CCOCC3)C2)cc1C (configuration not stated)	–	inconclusive: 35.5 µM [falling, single point]
O=C(C[N+]12CCC(CC1)C(CO)C2)c1ccc(Br)cc1 (configuration not stated)	inconclusive: -0.254%	–
COCCO[C@H]1CC[C@@]2(C)C(=CCC3C2CC[C@@]2(C)C3CC[C@]2(C)O)C1 (some centres not stated)	inactive	–
CCOc1cc(/C=C/c2cc(C(F)(F)F)[nH]c(=O)n2)ccc1O	–	inconclusive: 22.4 µM [falling, partial curve]
CCN(C(=O)C1CCN(c2nc(-c3ccc(OC)cc3)no2)CC1)c1ccc(OC)cc1	inconclusive: -0.716%	–
C=CC[C@@H](CC/C=C/C=C/CC/C=C\[C@@H]1CSC([C@@H]2C[C@@H]2C)=N1)OC	–	inconclusive: 8.2 µM [falling, partial curve]
CCn1c(=O)cc(OCC(=O)N2CCN(Cc3ccc4c(c3)OCO4)CC2)c2ccccc21	–	inconclusive: 35.5 µM [falling, single point]
O=C(NC1CN2CCC1CC2)c1cccc(Cl)c1 (configuration not stated)	inconclusive: 1.27%	–
Cc1ccc2c(c1)CC1(CN2C)C(=O)NC(=O)N(c2cc(C)ccc2C)C1=O (configuration not stated)	inconclusive: 3.94%	–
CCOC(=O)c1cc(CC)sc1/N=C/c1c(O)[nH]c(=S)[nH]c1=O	inactive	–
CCOc1ccccc1CNCCc1ccc2c(c1)OCO2	inactive	–
Cc1sc2c(c1C)C(=O)NC(c1ccccc1F)N2 (configuration not stated)	inconclusive: -8.69%	–
Cc1ccc(-n2c(CNCc3ccc(F)cc3)nc3ccccc3c2=O)cc1	inconclusive: -0.154%	–
CCOc1ccc(CNCCc2ccc3c(c2)OCO3)cc1	inconclusive: -13.5%	–
O=C(c1ccc(Br)cc1)C12CN3CN(CN(C3)C1)C2	–	inconclusive: 1 µM [falling, full curve, poor fit]
O=[N+]([O-])c1ccc(N2CCCC(C(F)(F)F)C2)c2ccncc12 (configuration not stated)	inactive	–
CCOc1ccccc1-n1c(O)c(C=Nc2ccc(N(CC)CC)cc2)c(=O)[nH]c1=O	inconclusive: -9.13%	–

SMILES	activity change, negative = inhibition	Potency
Cc1cc(/C=C2\C(=O)NC(=O)N(Cc3ccccc3)C2=O)c(C)n1-c1ccc(Cl)c(C(=O)O)c1	inactive	–
O=c1[nH]c(=O)n(Cc2ccccc2Cl)c(O)c1/C=C1/C=CC=N1	–	inconclusive: 3.98 µM [falling, full curve]
C[C@]12CCC3C(CC[C@H]4C[C@@H](O)CC[C@]34C)C1CC[C@@H]2OC(=O)[C@H](N)CCCCN (some centres not stated)	inactive	–
C/C(=N\N1CCN(C)CC1)c1c(O)[nH]c(=O)[nH]c1=O	inactive	–
Cc1cc(OCC(=O)OC(C)C)c2c3c(c(=O)oc2c1)CCCC3	inactive	–
O=c1[nH]c2c(c(=O)n1C1CCCCC1)CCC2	inconclusive: 0.637%	–
CCOc1cc(/C=N/Nc2cccc(C(=O)O)c2)ccc1OC(=O)c1ccccc1	–	inconclusive: 22.4 µM [falling, partial curve]
CC(=O)Nc1nc(C)c(-c2csc(Nc3ccccn3)n2)s1	–	inconclusive: 11.2 µM [falling, partial curve]
COC(=O)C1=Nc2ccccc2/C1=C\c1c(O)n(-c2cc(OC)ccc2OC)c(=O)[nH]c1=O	inconclusive: -11.8%	–
COCCN(C(=O)COC(=O)Cc1ccccc1)c1c(N)n(Cc2ccccc2)c(=O)[nH]c1=O	inconclusive: -0.798%	–
CN(C)N=O	inactive	–
CC1(C)NCCN2C(=O)CSC21 (configuration not stated)	–	inconclusive: 32.6 µM [falling, single point]
Cn1c(=O)c2c(nc(N/N=C/c3c(O)n(-c4ccccc4)c(=S)[nH]c3=O)n2C)n(C)c1=O	–	inconclusive: 6.51 µM [rising, partial curve, poor fit]
COc1ccc(C(=O)CN2CCCCC2)cc1	inactive	–
CN1C(=O)C(=Cc2ccc(-c3cccc(Cl)c3)o2)C(=O)N(C)C1=O	inactive	–
CCCCNS(=O)(=O)c1ccc2nc(SCC(=O)Nc3sccc3C#N)[nH]c2c1	inconclusive: -6.26%	–
COc1ccc(-c2nn(Cc3ccccc3)cc2C(=O)NC2CC2)cc1OC	inconclusive: -1.53%	–
CCC(Oc1cc(Cl)ccc1Cl)C(=O)N1CCC2(CC1)OCCO2 (configuration not stated)	inconclusive: -21.1%	–
CNc1cc(Cl)c2nonc2c1[N+](=O)[O-]	inconclusive: 14.1%	–

Reprinted at random: four entries already listed, in no set order.
SMILES	activity change, negative = inhibition	Potency
O=c1[nH]c(=O)n(Cc2ccccc2Cl)c(O)c1/C=C1/C=CC=N1	–	inconclusive: 3.98 µM [falling, full curve]
CCOc1cc(/C=N/Nc2cccc(C(=O)O)c2)ccc1OC(=O)c1ccccc1	–	inconclusive: 22.4 µM [falling, partial curve]
Cc1cc(OCC(=O)OC(C)C)c2c3c(c(=O)oc2c1)CCCC3	inactive	–
COc1ccc(-c2nn(Cc3ccccc3)cc2C(=O)NC2CC2)cc1OC	inconclusive: -1.53%	–
